Measurements reported in PubChem BioAssay AID1508597 (Cure First, 2020).
Screen: 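Genes whose silencing sensitises or protects ovarian cancer cells against rucaparib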 (primary screen). Cell system: human ovarian carcinoma lines grown from tumours: OCI-P5x (papillary serous) and OCI-C5x (clear cell). Knock-down reagent: siRNA pool against human genes, 1.25 pmol siRNA per well. Time to read-out: 72 h or 96 h, depending on the cell culture. Treatment: rucaparib 20 µM (about IC30) or vehicle, present until read-out. Rucaparib or vehicle: Vehicle. Cell line: OCI-C5x (clear cell). Read-out: 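Luminescent ATP-based viability assay read 72 or 96 h after transfection, depending on culture, given as normalised percent viability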. Direction: viability, normalised: higher = more viable cells remaining. Active means: 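a well counts as a hit if its normalised viability is under 80 percent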. Meaning of the calls: active = viability under 80%; inactive = viability 80% or more.
Shown is an unselected part of the about 2,100 reagents, in one setting of the screen. 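Calls flag viability under 80% in either arm, not effects specific to rucaparib; the reference for percent is not stated.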 A reagent listed more than once was tested more than once; the source does not tell the runs apart. Not given: the 100% reference.

| target gene | technical replicate | viability, normalised (%) | Call |
| --- | --- | --- | --- |
| BMPR1B | 1 | 45.3 | active |
| BMPR1B | 2 | 41.9 | active |
| BMPR1B | 3 | 42.4 | active |
| POLI | 1 | 53.5 | active |
| POLI | 2 | 52.9 | active |
| POLI | 3 | 65.1 | active |
| FGF19 | 1 | 52.2 | active |
| FGF19 | 2 | 53.2 | active |
| FGF19 | 3 | 48 | active |
| PIP5K1B | 1 | 51.4 | active |
| PIP5K1B | 2 | 40.8 | active |
| PIP5K1B | 3 | 23.7 | active |
| BRSK2 | 1 | 66.4 | active |
| BRSK2 | 2 | 48 | active |
| BRSK2 | 3 | 67.5 | active |
| PAK1 | 1 | 67.3 | active |
| PAK1 | 2 | 60.7 | active |
| PAK1 | 3 | 60.6 | active |
| PRDM5 | 1 | 35.5 | active |
| PRDM5 | 2 | 30.6 | active |
| PRDM5 | 3 | 31.3 | active |
| JARID2 | 1 | 48.6 | active |
| JARID2 | 2 | 34.6 | active |
| JARID2 | 3 | 47.2 | active |

Entries above whose target name begins with J or j:
| target gene | technical replicate | viability, normalised (%) | Call |
| --- | --- | --- | --- |
| JARID2 | 1 | 48.6 | active |
| JARID2 | 2 | 34.6 | active |
| JARID2 | 3 | 47.2 | active |

Next results:
| target gene | technical replicate | viability, normalised (%) | Call |
| --- | --- | --- | --- |
| NLGN1 | 1 | 24.9 | active |
| NLGN1 | 2 | 35.5 | active |
| NLGN1 | 3 | 23.1 | active |
| VRK3 | 1 | 54.6 | active |
| VRK3 | 1 | 69.3 | active |
| VRK3 | 2 | 51.9 | active |
| VRK3 | 2 | 81.4 | inactive |
| VRK3 | 3 | 57.4 | active |
| VRK3 | 3 | 85.5 | inactive |
| NAP1L3 | 1 | 56.8 | active |
| NAP1L3 | 2 | 53.5 | active |
| NAP1L3 | 3 | 54.7 | active |
| CTBP1-DT | 1 | 71.9 | active |
| CTBP1-DT | 2 | 66 | active |
| CTBP1-DT | 3 | 78.1 | active |
| CLDN15 | 1 | 56.7 | active |
| CLDN15 | 2 | 48.5 | active |
| CLDN15 | 3 | 56.8 | active |
| ELANE | 1 | 41.6 | active |
| ELANE | 2 | 43.5 | active |
| ELANE | 3 | 55.6 | active |
| GTF3C4 | 1 | 26.9 | active |
| GTF3C4 | 2 | 34.3 | active |
| GTF3C4 | 3 | 29 | active |
| H4C13 | 1 | 52.7 | active |
| H4C13 | 2 | 50.7 | active |
| H4C13 | 3 | 53.3 | active |
| MED19 | 1 | 32 | active |
| MED19 | 2 | 24.3 | active |
| MED19 | 3 | 45.7 | active |
| UPF1 | 1 | 83.6 | inactive |
| UPF1 | 2 | 48.2 | active |
| UPF1 | 3 | 30.7 | active |
